The effect of the compound repeats well; differences between the knockouts mostly do not.
Tested on: BT-20
Assay: relative cell number vs DMSO control (72 h) (% of DMSO); higher = less growth inhibition (more cells)
Method: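 QMAP-Seq: a pool of 5 breast cancer cell lines (ZR-75-1, SKBR3, HCC-38, MDA-MB-231, BT-20), each carrying 12 doxycycline-inducible Cas9 sgRNA perturbations (11 knockouts plus non-targeting sgNT), was treated with compounds for 72 h at four 10-fold doses (10 nM-10 uM or 1 nM-1 uM range). Barcodes were amplified and sequenced, and cell number was interpolated from 293T spike-in standard curves. The result is expressed as % of the median of DMSO wells. Two biological replicates.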

O=C(O)CC[C@H]1CC[C@@](c2cc(F)ccc2F)(S(=O)(=O)c2ccc(Cl)cc2)CC1 [MK0752]
Details	relative cell number
sgRNA knockout: sgATF3, 10 nM	140
sgRNA knockout: sgATF3, 100 nM	108
sgRNA knockout: sgATF3, 1000 nM	106
sgRNA knockout: sgATF3, 10000 nM	133
sgRNA knockout: sgATF4, 10 nM	153
sgRNA knockout: sgATF4, 100 nM	120
sgRNA knockout: sgATF4, 1000 nM	125
sgRNA knockout: sgATF4, 10000 nM	134
sgRNA knockout: sgATF6, 10 nM	118
sgRNA knockout: sgATF6, 100 nM	110
sgRNA knockout: sgATF6, 1000 nM	121
sgRNA knockout: sgATF6, 10000 nM	145
sgRNA knockout: sgATG7, 10 nM	140
sgRNA knockout: sgATG7, 100 nM	123
sgRNA knockout: sgATG7, 1000 nM	132
sgRNA knockout: sgATG7, 10000 nM	139
sgRNA knockout: sgERN1, 10 nM	125
sgRNA knockout: sgERN1, 100 nM	107
sgRNA knockout: sgERN1, 1000 nM	120
sgRNA knockout: sgERN1, 10000 nM	139
sgRNA knockout: sgHSF1, 10 nM	120
sgRNA knockout: sgHSF1, 100 nM	105
sgRNA knockout: sgHSF1, 1000 nM	121
sgRNA knockout: sgHSF1, 10000 nM	125
sgRNA knockout: sgHSF2, 10 nM	135
sgRNA knockout: sgHSF2, 100 nM	110
sgRNA knockout: sgHSF2, 1000 nM	129
sgRNA knockout: sgHSF2, 10000 nM	137
sgRNA knockout: sgKEAP1, 10 nM	125
sgRNA knockout: sgKEAP1, 100 nM	108.8
sgRNA knockout: sgKEAP1, 1000 nM	107
sgRNA knockout: sgKEAP1, 10000 nM	117
sgRNA knockout: sgNFE2L2, 10 nM	162
sgRNA knockout: sgNFE2L2, 100 nM	132
sgRNA knockout: sgNFE2L2, 1000 nM	157
sgRNA knockout: sgNFE2L2, 10000 nM	145.9
sgRNA knockout: sgSLC35F2, 10 nM	158
sgRNA knockout: sgSLC35F2, 100 nM	116
sgRNA knockout: sgSLC35F2, 1000 nM	128
sgRNA knockout: sgSLC35F2, 10000 nM	134
sgRNA knockout: sgXBP1, 10 nM	144
sgRNA knockout: sgXBP1, 100 nM	123
sgRNA knockout: sgXBP1, 1000 nM	132
sgRNA knockout: sgXBP1, 10000 nM	143

C=CCn1c(=O)c2cnc(Nc3ccc(N4CCN(C)CC4)cc3)nc2n1-c1cccc(C(C)(C)O)n1 [MK1775]
Details	relative cell number
sgRNA knockout: sgATF3, 10 nM	95.4
sgRNA knockout: sgATF3, 100 nM	106
sgRNA knockout: sgATF3, 1000 nM	44
sgRNA knockout: sgATF3, 10000 nM	27
sgRNA knockout: sgATF4, 10 nM	70.5
sgRNA knockout: sgATF4, 100 nM	84.4
sgRNA knockout: sgATF4, 1000 nM	44.5
sgRNA knockout: sgATF4, 10000 nM	32.9
sgRNA knockout: sgATF6, 10 nM	91.6
sgRNA knockout: sgATF6, 100 nM	93.98
sgRNA knockout: sgATF6, 1000 nM	45.7
sgRNA knockout: sgATF6, 10000 nM	27.7
sgRNA knockout: sgATG7, 10 nM	96.3
sgRNA knockout: sgATG7, 100 nM	83.3
sgRNA knockout: sgATG7, 1000 nM	38.5
sgRNA knockout: sgATG7, 10000 nM	27.9
sgRNA knockout: sgERN1, 10 nM	89.2
sgRNA knockout: sgERN1, 100 nM	95.5
sgRNA knockout: sgERN1, 1000 nM	38.8
sgRNA knockout: sgERN1, 10000 nM	26.5
sgRNA knockout: sgHSF1, 10 nM	77.6
sgRNA knockout: sgHSF1, 100 nM	91.1
sgRNA knockout: sgHSF1, 1000 nM	41.5
sgRNA knockout: sgHSF1, 10000 nM	27.7
sgRNA knockout: sgHSF2, 10 nM	94.1
sgRNA knockout: sgHSF2, 100 nM	84.5
sgRNA knockout: sgHSF2, 1000 nM	38.6
sgRNA knockout: sgHSF2, 10000 nM	27.4
sgRNA knockout: sgKEAP1, 10 nM	90.06
sgRNA knockout: sgKEAP1, 100 nM	90
sgRNA knockout: sgKEAP1, 1000 nM	36.424
sgRNA knockout: sgKEAP1, 10000 nM	24.4
sgRNA knockout: sgNFE2L2, 10 nM	86.9
sgRNA knockout: sgNFE2L2, 100 nM	101.9
sgRNA knockout: sgNFE2L2, 1000 nM	35.2
sgRNA knockout: sgNFE2L2, 10000 nM	24
sgRNA knockout: sgSLC35F2, 10 nM	82
sgRNA knockout: sgSLC35F2, 100 nM	93.1
sgRNA knockout: sgSLC35F2, 1000 nM	34.8
sgRNA knockout: sgSLC35F2, 10000 nM	26.6
sgRNA knockout: sgXBP1, 10 nM	89.7
sgRNA knockout: sgXBP1, 100 nM	91.2
sgRNA knockout: sgXBP1, 1000 nM	41.1
sgRNA knockout: sgXBP1, 10000 nM	27.8

CN(Cc1cnc2nc(N)nc(N)c2n1)c1ccc(C(=O)N[C@@H](CCC(=O)O)C(=O)O)cc1 [Methotrexate]
Details	relative cell number
sgRNA knockout: sgATF3, 10 nM	113
sgRNA knockout: sgATF3, 100 nM	67.9
sgRNA knockout: sgATF3, 1000 nM	49
sgRNA knockout: sgATF3, 10000 nM	47.3
sgRNA knockout: sgATF4, 10 nM	97
sgRNA knockout: sgATF4, 100 nM	70.7
sgRNA knockout: sgATF4, 1000 nM	53.2
sgRNA knockout: sgATF4, 10000 nM	38.8
sgRNA knockout: sgATF6, 10 nM	101
sgRNA knockout: sgATF6, 100 nM	67.4
sgRNA knockout: sgATF6, 1000 nM	62.5
sgRNA knockout: sgATF6, 10000 nM	47
sgRNA knockout: sgATG7, 10 nM	115
sgRNA knockout: sgATG7, 100 nM	72.3
sgRNA knockout: sgATG7, 1000 nM	50.9
sgRNA knockout: sgATG7, 10000 nM	47.3
sgRNA knockout: sgERN1, 10 nM	102
sgRNA knockout: sgERN1, 100 nM	63.9
sgRNA knockout: sgERN1, 1000 nM	59.45
sgRNA knockout: sgERN1, 10000 nM	43.7
sgRNA knockout: sgHSF1, 10 nM	102
sgRNA knockout: sgHSF1, 100 nM	62.12
sgRNA knockout: sgHSF1, 1000 nM	47.2
sgRNA knockout: sgHSF1, 10000 nM	48.7
sgRNA knockout: sgHSF2, 10 nM	99.8
sgRNA knockout: sgHSF2, 100 nM	60
sgRNA knockout: sgHSF2, 1000 nM	52.8
sgRNA knockout: sgHSF2, 10000 nM	50.7
sgRNA knockout: sgKEAP1, 10 nM	102
sgRNA knockout: sgKEAP1, 100 nM	62.8
sgRNA knockout: sgKEAP1, 1000 nM	51.26
sgRNA knockout: sgKEAP1, 10000 nM	40.1
sgRNA knockout: sgNFE2L2, 10 nM	112
sgRNA knockout: sgNFE2L2, 100 nM	59.8
sgRNA knockout: sgNFE2L2, 1000 nM	58.3
sgRNA knockout: sgNFE2L2, 10000 nM	43.9
sgRNA knockout: sgSLC35F2, 10 nM	104
sgRNA knockout: sgSLC35F2, 100 nM	72.9
sgRNA knockout: sgSLC35F2, 1000 nM	50.2
sgRNA knockout: sgSLC35F2, 10000 nM	45.8
sgRNA knockout: sgXBP1, 10 nM	112
sgRNA knockout: sgXBP1, 100 nM	70.7
sgRNA knockout: sgXBP1, 1000 nM	56.4
sgRNA knockout: sgXBP1, 10000 nM	44.5
